In patent publication US10435394B2, “Plant growth-promotion agent and method for promoting plant growth” (RIKEN, priority 2014, dated 2019):
Some results were stated once for a whole list of compounds, not compound by compound.

System: Arabidopsis seeds (Columbia)
Assay: Plant growth promoting activity test using Arabidopsis, Experimental Method (2)
Type: in vivo
Details: 15, 30, 60 μM; for development/growth of lateral roots: constant light irradiation; for plant growth promoting effects (state of sprouting): Day 22, FIGS. 6 and 7
Method: A ½ MS medium (agarose: 0.9%; sucrose: 1.5%; Murashige & Skoog plant culture medium×½ concentration) was prepared and autoclaved. Then, the test compounds were separately added thereto at 0 (DMSO alone), 15, 30, and 60 μM and solidified in a plastic petri dish. Arabidopsis seeds (Columbia) were sterilized with ethanol and sown to sprout, followed by observation of conditions of leaves and roots after sprouting. DMSO alone was added as a solvent for a control.

[1] = Day 13 of sprouting, FIGS. 8 and 9

Compound | development/growth of lateral roots [1] | plant growth promoting effects (state of sprouting) | development/growth of lateral roots (Day 11 of sprouting, FIGS. 12 and 13)
CN1CCN(Cc2ccc3c(c2)OCO3)CC1 [Compound 11] | activity of promoting development/growth of lateral roots in the early growth stage | remarkably excellent plant growth promoting effects | –
c1cc2c(cc1CN1CCNCC1)OCO2 [Compound 1, 1-piperonylpiperazine] | activity of promoting development/growth of lateral roots in the early growth stage | remarkably excellent plant growth promoting effects | activity of promoting development/growth of lateral roots at the early growth stage
